{"sequences": {"note": "The chains behind the UniProt entries cited, without tags or fusion partners.", "UniProt Q9Y812": "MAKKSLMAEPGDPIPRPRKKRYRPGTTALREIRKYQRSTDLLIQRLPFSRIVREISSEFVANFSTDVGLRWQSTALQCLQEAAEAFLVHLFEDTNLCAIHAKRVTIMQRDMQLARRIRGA"}, "source": "paper PMC2193228", "biological_target": "Sim3 (S. pombe (endogenous in S. pombe)) (UniProt Q9USQ4)", "assay": "co-IP; cells overexpressing HA-tagged histones (nmt41x-HA-CENP-A^Cnp1; inv1-H3-HA; inv1-H4-HA); Figure S6", "note": "No constants are given. Whether binding was seen depends on the method and setting. Binding seen in cells or lysates may run through a third protein. Some results given as binding are weak or reduced against the parent protein; the word gives no strength.", "data": [{"substance": "HA-tagged CENP-A^Cnp1 (from UniProt Q9Y812 1-120)", "values": [{"measurement": "binding", "value": "binds"}]}]}
